From PubChem BioAssay AID256 (DTP/NCI, 2004)
The list does not hold the whole screen: it gathers some chemical classes. Not every dose and run of a compound is shown. T/C: endpoint of the treated group in % of that of the vehicle group. Some doses have a count of surviving animals in place of a T/C: the source holds a T/C of zero for them, seemingly a mark for toxic or unscored doses. Some survivor counts are full or nearly so, which does not show that the dose was tolerated: the source hardly ever lists a survival T/C far under the control, and the zero likely stands for such cases as well. Survivors were counted at the toxicity check, usually on the fifth day, unless a day is given; later deaths do not show. Schedule codes are those of the source, taken here to give the interval after Q, in days (D) or hours (H), and the number of doses after X. Where survival is the endpoint, the PubChem record calls one and a half times the control and up active, and a quarter to a half above the control has no call in these data; cut-offs in other NCI protocols can differ. Some entries show no survivor count and are marked so; the dose need not have been tolerated. Some T/C values carry the count of animals alive at the toxicity check (mostly the fifth day); where neither a count nor a note follows, no animal had died by that day.

Tested on: CD2F1 mice, L1210 leukemia ip, survival T/C
Assay: NCI In Vivo Anticancer Drug Screen. Data for tumor model L1210 Leukemia (intraperitoneal) in CD2F1 (CDF1) mice
Conditions: T/C endpoint: mean survival time, higher T/C = longer survival
Procedure, shortened: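 Vehicle-treated tumor-bearing mice served as controls (C) for compound-treated mice (T). Reported figure is T divided by C.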

[1] = dose: 25.0 mg/kg/injection, schedule: Q04DX003 (ip), vehicle: saline
[2] = dose: 50.0 mg/kg/injection, schedule: Q04DX003 (ip), vehicle: saline
[3] = dose: 100.0 mg/kg/injection, schedule: Q04DX003 (ip), vehicle: saline
[4] = dose: 15.62 mg/kg/injection, schedule: Q01DX001 (ip), vehicle: DMSO
[5] = dose: 31.3 mg/kg/injection, schedule: Q01DX001 (ip), vehicle: DMSO
[6] = dose: 62.5 mg/kg/injection, schedule: Q01DX001 (ip), vehicle: DMSO
[7] = dose: 125.0 mg/kg/injection, schedule: Q01DX001 (ip), vehicle: DMSO
[8] = dose: 250.0 mg/kg/injection, schedule: Q01DX001 (ip), vehicle: DMSO
[9] = dose: 500.0 mg/kg/injection, schedule: Q01DX001 (ip), vehicle: DMSO
[10] = dose: 75.0 mg/kg/injection, schedule: Q01DX001 (ip), vehicle: other
[11] = dose: 150.0 mg/kg/injection, schedule: Q01DX001 (ip), vehicle: other
[12] = dose: 300.0 mg/kg/injection, schedule: Q01DX001 (ip), vehicle: other

In the case of `O[As](O)O.S=C(S)c1ccccc1S`, the T/C (dose: 25.0 mg/kg/injection, schedule: Q01DX009 (ip), vehicle: saline) is reported as 103 % of control, the T/C [1] is reported as 102 % of control and the T/C (dose: 50.0 mg/kg/injection, schedule: Q01DX009 (ip), vehicle: saline) is reported as 107 % of control [5 of 6 alive]. The T/C [2] was 102 % of control, the survivor count (dose: 100.0 mg/kg/injection, schedule: Q01DX009 (ip), vehicle: saline) was 0 of 6 and the T/C [3] was 104 % of control [4 of 6 alive].

With `CC1NP(=O)(N(CCCl)CCCl)OCC(C)C(C)O1` (centres undefined) the T/C [4] was 159 % of control, the survivor count [5] was 4 of 6 and the survivor count [6] was 2 of 6. For the same compound, the survivor count [7] was 1 of 6, the survivor count [8] was 0 of 6 and the survivor count [9] was 0 of 6.

`CCN(CC)CCOC(=O)C(O)(c1ccc(C)cc1)c1ccc(C)cc1` was tested, and the T/C [10] was 103 % of control, the survivor count [11] was 0 of 6 and the survivor count [12] was 0 of 6.

`COC1OC(CNCCBr)C2OC(C)(C)OC12` (centres undefined) was tested, and the T/C (dose: 25.0 mg/kg/injection, schedule: Q01DX001 (ip), vehicle: saline) was 103 % of control, the T/C (dose: 50.0 mg/kg/injection, schedule: Q01DX001 (ip), vehicle: saline) was 121 % of control and the T/C (dose: 100.0 mg/kg/injection, schedule: Q01DX001 (ip), vehicle: saline) was 122 % of control. For the same compound, the T/C (dose: 200.0 mg/kg/injection, schedule: Q01DX001 (ip), vehicle: saline) was 116 % of control.

For `F[P-](F)(F)(F)(F)F.c1ccc([P+]2(c3ccccc3)CCc3ccccc3C2)cc1`, the survivor count (dose: 6.25 mg/kg/injection, schedule: Q04DX003 (ip), vehicle: saline with Tween-80) was 1 of 3, the survivor count (dose: 12.5 mg/kg/injection, schedule: Q04DX003 (ip), vehicle: saline with Tween-80) was 0 of 3 and the survivor count (dose: 25.0 mg/kg/injection, schedule: Q04DX003 (ip), vehicle: saline with Tween-80) was 0 of 3. For the same compound, the survivor count (dose: 100.0 mg/kg/injection, schedule: Q04DX003 (ip), vehicle: saline with Tween-80) was 0 of 3, the survivor count (dose: 200.0 mg/kg/injection, schedule: Q04DX003 (ip), vehicle: saline with Tween-80) was 0 of 3 and the survivor count (dose: 400.0 mg/kg/injection, schedule: Q04DX003 (ip), vehicle: saline with Tween-80) was 0 of 3.

`CC(=O)C(C)COP(N)(=O)N(CCCl)CCCl` (centres undefined) was tested, and the T/C [4] was 106 % of control, the T/C [5] was 103 % of control and the T/C [6] was 106 % of control. For the same compound, the T/C [7] was 113 % of control, the T/C [8] was 125 % of control and the T/C [9] was 132 % of control.

In the case of `CC(C)CC(C)NCCO.O=[N+]([O-])c1cc([N+](=O)[O-])c(O)c([N+](=O)[O-])c1`, the T/C [10] is reported as 93 % of control [survivor count not shown], the T/C [11] is reported as 92 % of control [survivor count not shown] and the T/C [12] is reported as 89 % of control [survivor count not shown].

In the case of `NC1CCCCC1.O=C(O)CCOP(=O)(O)N(CCCl)CCCl`, the T/C [1] is reported as 107 % of control, the T/C [2] is reported as 101 % of control and the T/C [3] is reported as 103 % of control. The T/C (dose: 200.0 mg/kg/injection, schedule: Q04DX003 (ip), vehicle: saline) was 110 % of control and the T/C (dose: 400.0 mg/kg/injection, schedule: Q04DX003 (ip), vehicle: saline) was 133 % of control.
